A: 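ClpP1P2, Mycobacterium tuberculosis (UniProt P9WPC5 and UniProt P9WPC3). Protease assay of ClpP1P2, read by the AMC dye that it sets free. Tested at 50 µM. Direction is inferred from only a few compounds that gave an IC50; most scored high, so higher reads as stronger inhibition. Most other retested compounds had strongly negative values. About 69,000 compounds were tested under these conditions; 0.015% (about 10) showed 50% or more at least once.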
B: 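Histidine-tRNA ligase, Leishmania infantum (UniProt A4I591). Enzyme assay of histidyl-tRNA synthetase; the read-out is not stated. Concentration: 30 µM. Higher reads as stronger inhibition (inferred: compounds with an IC50 in retests scored well above the rest). The assay is labelled LdHisRS but filed under L. infantum. About 69,000 compounds were tested under these conditions; 0.6% (about 410) showed 50% or more at least once.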

By UniProt entry, the sequences of proteins in these tests, tags left out. Residues count along the entry.
UniProt P9WPC5, whole entry: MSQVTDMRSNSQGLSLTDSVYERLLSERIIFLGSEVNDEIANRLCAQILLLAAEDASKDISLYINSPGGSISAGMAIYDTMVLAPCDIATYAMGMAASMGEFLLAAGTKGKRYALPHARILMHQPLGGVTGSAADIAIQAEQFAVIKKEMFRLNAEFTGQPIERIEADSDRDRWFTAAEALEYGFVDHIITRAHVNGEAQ
UniProt P9WPC3, whole entry partner: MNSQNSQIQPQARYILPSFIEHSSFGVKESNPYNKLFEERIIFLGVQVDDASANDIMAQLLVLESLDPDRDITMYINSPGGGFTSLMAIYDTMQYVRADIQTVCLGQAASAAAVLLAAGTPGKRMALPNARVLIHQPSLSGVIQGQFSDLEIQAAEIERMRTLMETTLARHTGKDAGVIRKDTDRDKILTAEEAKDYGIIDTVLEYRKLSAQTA
UniProt A4I591, 1-473: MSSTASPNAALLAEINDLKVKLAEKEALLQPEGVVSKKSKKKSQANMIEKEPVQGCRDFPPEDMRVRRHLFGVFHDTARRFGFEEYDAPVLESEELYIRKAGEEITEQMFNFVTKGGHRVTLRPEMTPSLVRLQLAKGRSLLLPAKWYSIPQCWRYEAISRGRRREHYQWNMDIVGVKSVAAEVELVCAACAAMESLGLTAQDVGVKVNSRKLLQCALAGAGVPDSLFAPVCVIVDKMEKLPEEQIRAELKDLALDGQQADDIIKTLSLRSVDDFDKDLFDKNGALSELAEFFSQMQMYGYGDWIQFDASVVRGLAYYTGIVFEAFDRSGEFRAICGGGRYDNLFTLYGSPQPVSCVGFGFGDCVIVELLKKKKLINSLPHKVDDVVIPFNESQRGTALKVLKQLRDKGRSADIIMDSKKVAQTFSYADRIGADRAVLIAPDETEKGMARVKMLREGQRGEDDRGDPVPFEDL

Results are given as percent effect.
The record does not define 0% and 100%; most values in the screen are far below 50% and negative numbers occur (in some assays of this library far below -100).
Compounds were drawn at random from those tested, without regard to their results.

{"smiles": "O=C(Nc1ccncc1)NC1CCN(c2ccccc2Cl)C1=O", "stereo": "stereo not given", "A": -1.907, "B": 17.95}
{"smiles": "O=C(CN1CCCCCC1)N1CCc2nnc(C3CCCNC3)n2CC1", "stereo": "stereo not given", "A": -20.41, "B": 4.286}
{"smiles": "c1cncc(CN2CCC(NCCc3ccc4c(c3)CCO4)CC2)c1", "A": -6.505, "B": -5}
{"smiles": "Cc1nc2c(Nc3ccc(C#N)cc3)nc(N)nc2n1C", "A": -8.666, "B": 19.47}
{"smiles": "N#Cc1ccc(SCCC(=O)N(Cc2cccnc2)C2CC2)cc1", "A": -6.809, "B": 2.74}
{"smiles": "CCc1csc(NC(=O)NCc2ccccn2)n1", "A": 1.133, "B": 12.7}
{"smiles": "CC(C)CNC(=O)C1=NOC2(CCN(Cc3ccc(C(C)C)cc3)C2)C1", "stereo": "stereo not given", "A": -4.487, "B": 3.774}
{"smiles": "CSc1ccc(CNC2CCCc3c2cnn3C)cc1", "stereo": "stereo not given", "A": 7.349, "B": 18.07}
{"smiles": "Cc1csc(C2(NC(=O)NCCN3CCOCC3)CCC2)n1", "A": -4.977, "B": 22.08}
{"smiles": "CCc1nnc(CN2CCC(N3CCN(CC)C3=O)CC2)o1", "A": -38.25, "B": 15.04}
{"smiles": "CS(=O)(=O)NCC1CCCN(C(=O)c2cc3ccccc3o2)C1", "stereo": "stereo not given", "A": 11.11, "B": 21.88}
{"smiles": "CC(NCCn1cccn1)c1ccccc1Cl", "stereo": "stereo not given", "A": 9.926, "B": 0}
{"smiles": "O=C(NCCc1ccccn1)N1CCOC(c2ccccc2Cl)C1", "stereo": "stereo not given", "A": -7.628, "B": 2.073}
{"smiles": "CC(C)N1C[C@H](O)C[C@H]1c1nc(-c2ccc(OC(F)(F)F)cc2)no1", "A": -0.2845, "B": 13.89}
{"smiles": "Cc1cnn(CC2CCCCN2C(=O)c2ccc3nncn3c2)c1", "stereo": "stereo not given", "A": -18.53, "B": 5.172}
{"smiles": "Cc1ccc(CN2CCC3(CCCN3S(C)(=O)=O)CC2)s1", "A": -1.304, "B": 18}
{"smiles": "Cc1ccc([C@@]2(O)CC[C@@H]3CN(S(=O)(=O)c4cn(C)nc4C)C[C@@H]32)cc1", "A": -7.729, "B": -15.79}
{"smiles": "Cc1nc2cc(-c3nccn3C)nn2c(N2CCCC(CO)C2)c1C", "stereo": "stereo not given", "A": -3.369, "B": 9.859}
{"smiles": "COc1coc(C(=O)Nc2nc(C)cs2)cc1=O", "A": 12.68, "B": 16.48}
{"smiles": "Cc1noc(C)c1S(=O)(=O)NCC(O)c1ccc2c(c1)CCO2", "stereo": "stereo not given", "A": -12.93, "B": 23.38}
{"smiles": "CCn1ncc2c1C(COCC1CC1)N(C(=O)c1ccncn1)CC2", "stereo": "stereo not given", "A": -2.487, "B": 10.26}
{"smiles": "CN1C(=O)CCN(C(=O)C2CC=CC2)c2ccccc21", "A": -2.239, "B": 17.24}
{"smiles": "COc1ccc(Cl)cc1NCC(=O)N(Cc1cccnc1)C1CC1", "A": 2.46, "B": 5.759}
{"smiles": "Cc1c2ncn(CC(=O)N(C)C)c(=O)c2nn1C", "A": 9.281, "B": 11.76}
{"smiles": "Cc1nc(C(C)C)ncc1C(=O)N1CCCC(N2CCCC2)C1", "stereo": "stereo not given", "A": 2.023, "B": 16.46}
{"smiles": "c1coc(-c2nnc([C@H]3CCN(Cc4ccc5c(c4)OCO5)C3)o2)c1", "A": 2.053, "B": 20.27}
{"smiles": "CC(=O)N1CCN(C(C)c2ccc(Br)cc2)CC1", "stereo": "stereo not given", "A": -3.371, "B": 10.75}

3 of the entries, repeated:

SMILES	A	B
CS(=O)(=O)NCC1CCCN(C(=O)c2cc3ccccc3o2)C1 (stereo not given)	11.11	21.88
Cc1ccc(CN2CCC3(CCCN3S(C)(=O)=O)CC2)s1	-1.304	18
Cc1noc(C)c1S(=O)(=O)NCC(O)c1ccc2c(c1)CCO2 (stereo not given)	-12.93	23.38

Source: ChEMBL document CHEMBL3988442, “University of Dundee, Small-Polar-MMV Screening Library” (2021).